PubChem BioAssay AID504774 – Drosophila RNAi Screening Center, 2011
Aim: 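Fly genes whose loss alters survival after alkylation damage to DNA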 (primary screen). Cell system: Drosophila Kc167 cells. Knock-down reagent: long dsRNA against Drosophila genes, about 0.25 µg dsRNA per well. Duration: about 6 days: 3 days knock-down, then 3 days with or without MMS. Conditions: methyl methanesulphonate 0.004% (w/v) for 3 days after knock-down. Measured: 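Viability in wells given MMS, read as ATP luminescence, normalised by quantiles plate by plate and averaged across replicates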. Reading the numbers: mean viability with MMS and viability with MMS: higher = more surviving cells after MMS.
In all, the deposit lists about 23,000 reagents; below is a random part of those with a known target gene and a result. 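Values are quantile-normalised luminescence on an arbitrary scale; higher means more cells surviving MMS.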 Further read-outs or replicates are left out here.

Depletion of Syx7 (Syntaxin 7) [DRSC11763] came out at: mean viability with MMS 3.60e6; viability with MMS, replicate 1 = 3.93e6. After knock-down of CG14820 [DRSC10191], the screen gave mean viability with MMS 3.58e6; viability with MMS, replicate 1 = 4.06e6. Knock-down of Cad99C (Cadherin 99C) [DRSC15050] came out at: mean viability with MMS 3.60e6; viability with MMS, replicate 1 = 4.07e6. Cad99C (Cadherin 99C) [DRSC16317] gave mean viability with MMS 3.69e6; viability with MMS, replicate 1 = 4.15e6. Against dati (datilografo) [DRSC17128] the deposit lists mean viability with MMS 3.55e6; viability with MMS, replicate 1 = 4.14e6. Depletion of dati (datilografo) [DRSC17153] resulted in: mean viability with MMS 3.61e6; viability with MMS, replicate 1 = 4.16e6.

With knock-down of CG8138 [DRSC16386], the screen gave mean viability with MMS 3.51e6; viability with MMS, replicate 1 = 3.86e6. betaNACtes6 (Nascent-associated complex beta-subunit-like, testis 6) [DRSC22925] gave mean viability with MMS 3.59e6; viability with MMS, replicate 1 = 4.12e6. Silencing of CG4619 [DRSC02764] gave: mean viability with MMS 3.70e6; viability with MMS, replicate 1 = 4.42e6.

In a second layout: results already given
dati (datilografo) [DRSC17153]
- mean viability with MMS: 3.61e6
- viability with MMS, replicate 1: 4.16e6

CG8138 [DRSC16386]
- mean viability with MMS: 3.51e6
- viability with MMS, replicate 1: 3.86e6

Further entries follow:
Knock-down of Arp3 (Actin-related protein 3) [DRSC09669] gave: mean viability with MMS 3.50e6; viability with MMS, replicate 1 = 3.94e6. With knock-down of superdeath (Suppressor of ER stress-induced death) [DRSC14868], the screen gave mean viability with MMS 1.77e6; viability with MMS, replicate 1 = 3.95e6. Knock-down of spdi (split discs) [DRSC18487] came out at: mean viability with MMS 3.53e6; viability with MMS, replicate 1 = 3.98e6. Knock-down of spdi (split discs) [DRSC18488] gave: mean viability with MMS 3.60e6; viability with MMS, replicate 1 = 4.08e6. Against CG13157 [DRSC06282] the deposit lists mean viability with MMS 3.60e6; viability with MMS, replicate 1 = 4.07e6.
